Experimental data from US20230321101A1, “METHODS AND USES OF HALOFUGINONE” (The Regents of the University of California, priority 2020, published 2023).
At least one compound was matched to its structure with a doubt left.

Test system: cell surface heparan sulfate of Hep3B cells
Test: Heparan sulfate presentation by anti-HS mAb 10E4 staining of Hep3B cells
Assay type: cell-based, human

For C/C=C1\NC(=O)[C@H]2CSSCC/C=C/[C@H](CC(=O)N[C@H](C(C)C)C(=O)N2)OC(=O)[C@H](C(C)C)NC1=O [Romidepsin], the “effect on heparan sulfate presentation (10E4 binding)” value was “increased the total amount of heparan sulfate”.
